Assay results reported in the supplement of paper PMC11732987, “Enantioselective OTUD7B fragment discovery through chemoproteomics screening and high-throughput optimisation” (Communications Chemistry, 2025).
The list shows a part of the results. The data scatter; read single values as rough.

Sequences of proteins named here, by UniProt entry; tags and fusion partners are left off. A change or cut given only in a name is not applied to a line headed by its entry. Residues count along the entry.
UniProt Q15648, whole entry, looked up: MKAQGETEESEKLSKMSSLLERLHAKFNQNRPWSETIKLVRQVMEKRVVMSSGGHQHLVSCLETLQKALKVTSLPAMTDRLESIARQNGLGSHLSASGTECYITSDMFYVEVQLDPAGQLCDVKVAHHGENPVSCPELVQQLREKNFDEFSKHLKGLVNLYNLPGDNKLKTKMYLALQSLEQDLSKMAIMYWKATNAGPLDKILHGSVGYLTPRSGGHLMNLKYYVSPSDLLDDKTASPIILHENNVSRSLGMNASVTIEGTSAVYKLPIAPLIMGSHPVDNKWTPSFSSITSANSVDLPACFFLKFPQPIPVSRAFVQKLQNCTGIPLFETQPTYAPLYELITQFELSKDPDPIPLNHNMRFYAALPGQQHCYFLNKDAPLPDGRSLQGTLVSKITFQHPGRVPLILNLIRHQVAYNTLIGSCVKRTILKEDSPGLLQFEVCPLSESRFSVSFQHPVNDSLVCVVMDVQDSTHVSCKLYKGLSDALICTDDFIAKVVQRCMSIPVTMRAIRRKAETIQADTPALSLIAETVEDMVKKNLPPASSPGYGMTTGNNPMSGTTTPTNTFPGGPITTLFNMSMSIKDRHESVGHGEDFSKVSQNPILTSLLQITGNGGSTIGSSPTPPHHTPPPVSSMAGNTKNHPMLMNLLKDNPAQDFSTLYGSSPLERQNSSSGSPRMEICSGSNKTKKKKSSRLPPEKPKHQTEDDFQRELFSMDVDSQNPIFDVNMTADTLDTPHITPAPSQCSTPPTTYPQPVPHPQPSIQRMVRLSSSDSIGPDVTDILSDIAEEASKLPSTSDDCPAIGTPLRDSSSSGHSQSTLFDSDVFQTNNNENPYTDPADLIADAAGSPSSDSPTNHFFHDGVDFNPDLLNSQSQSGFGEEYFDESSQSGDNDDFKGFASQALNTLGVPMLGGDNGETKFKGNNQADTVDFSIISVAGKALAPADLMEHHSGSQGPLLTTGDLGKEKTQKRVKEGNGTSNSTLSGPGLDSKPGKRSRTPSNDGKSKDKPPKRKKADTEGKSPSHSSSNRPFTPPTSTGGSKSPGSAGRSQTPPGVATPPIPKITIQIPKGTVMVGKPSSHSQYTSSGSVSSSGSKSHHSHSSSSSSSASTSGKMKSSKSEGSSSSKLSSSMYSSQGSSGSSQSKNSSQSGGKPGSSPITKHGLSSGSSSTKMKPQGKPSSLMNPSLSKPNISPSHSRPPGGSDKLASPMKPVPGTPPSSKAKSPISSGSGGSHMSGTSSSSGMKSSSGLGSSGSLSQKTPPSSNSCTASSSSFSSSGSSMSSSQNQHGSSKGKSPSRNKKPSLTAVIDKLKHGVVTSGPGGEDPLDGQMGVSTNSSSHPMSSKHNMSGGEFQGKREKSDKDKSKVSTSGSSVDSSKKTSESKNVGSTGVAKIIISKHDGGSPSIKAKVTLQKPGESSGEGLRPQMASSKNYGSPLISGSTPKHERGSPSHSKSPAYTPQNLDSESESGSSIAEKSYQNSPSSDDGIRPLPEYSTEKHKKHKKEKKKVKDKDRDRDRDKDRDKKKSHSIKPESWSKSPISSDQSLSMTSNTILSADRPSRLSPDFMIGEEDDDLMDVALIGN
UniProt P46013, 1959-1982: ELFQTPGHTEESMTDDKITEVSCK
UniProt P25325: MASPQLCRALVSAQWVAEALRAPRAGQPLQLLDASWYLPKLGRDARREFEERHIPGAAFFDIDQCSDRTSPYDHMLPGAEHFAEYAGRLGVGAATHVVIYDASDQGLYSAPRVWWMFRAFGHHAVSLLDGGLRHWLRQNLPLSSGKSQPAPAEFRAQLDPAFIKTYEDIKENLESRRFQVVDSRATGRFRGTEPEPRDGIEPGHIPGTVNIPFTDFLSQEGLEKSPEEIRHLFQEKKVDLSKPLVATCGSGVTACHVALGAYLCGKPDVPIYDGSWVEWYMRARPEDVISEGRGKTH
UniProt Q8IWI9, 36-59: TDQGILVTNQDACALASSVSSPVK
UniProt Q6IN84: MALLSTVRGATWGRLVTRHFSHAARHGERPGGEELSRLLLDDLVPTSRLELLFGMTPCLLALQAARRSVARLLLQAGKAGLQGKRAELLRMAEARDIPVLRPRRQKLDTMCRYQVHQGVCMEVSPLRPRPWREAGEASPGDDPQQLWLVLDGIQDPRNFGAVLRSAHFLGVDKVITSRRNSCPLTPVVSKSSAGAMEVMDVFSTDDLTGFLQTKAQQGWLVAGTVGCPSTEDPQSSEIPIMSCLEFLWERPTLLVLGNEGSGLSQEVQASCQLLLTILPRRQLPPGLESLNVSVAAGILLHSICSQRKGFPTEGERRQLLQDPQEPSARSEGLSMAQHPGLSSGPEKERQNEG
UniProt Q9NU22, 267-289: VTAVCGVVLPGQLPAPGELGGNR
UniProt Q9NU22, 5028-5056: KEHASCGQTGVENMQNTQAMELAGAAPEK
UniProt Q96T76: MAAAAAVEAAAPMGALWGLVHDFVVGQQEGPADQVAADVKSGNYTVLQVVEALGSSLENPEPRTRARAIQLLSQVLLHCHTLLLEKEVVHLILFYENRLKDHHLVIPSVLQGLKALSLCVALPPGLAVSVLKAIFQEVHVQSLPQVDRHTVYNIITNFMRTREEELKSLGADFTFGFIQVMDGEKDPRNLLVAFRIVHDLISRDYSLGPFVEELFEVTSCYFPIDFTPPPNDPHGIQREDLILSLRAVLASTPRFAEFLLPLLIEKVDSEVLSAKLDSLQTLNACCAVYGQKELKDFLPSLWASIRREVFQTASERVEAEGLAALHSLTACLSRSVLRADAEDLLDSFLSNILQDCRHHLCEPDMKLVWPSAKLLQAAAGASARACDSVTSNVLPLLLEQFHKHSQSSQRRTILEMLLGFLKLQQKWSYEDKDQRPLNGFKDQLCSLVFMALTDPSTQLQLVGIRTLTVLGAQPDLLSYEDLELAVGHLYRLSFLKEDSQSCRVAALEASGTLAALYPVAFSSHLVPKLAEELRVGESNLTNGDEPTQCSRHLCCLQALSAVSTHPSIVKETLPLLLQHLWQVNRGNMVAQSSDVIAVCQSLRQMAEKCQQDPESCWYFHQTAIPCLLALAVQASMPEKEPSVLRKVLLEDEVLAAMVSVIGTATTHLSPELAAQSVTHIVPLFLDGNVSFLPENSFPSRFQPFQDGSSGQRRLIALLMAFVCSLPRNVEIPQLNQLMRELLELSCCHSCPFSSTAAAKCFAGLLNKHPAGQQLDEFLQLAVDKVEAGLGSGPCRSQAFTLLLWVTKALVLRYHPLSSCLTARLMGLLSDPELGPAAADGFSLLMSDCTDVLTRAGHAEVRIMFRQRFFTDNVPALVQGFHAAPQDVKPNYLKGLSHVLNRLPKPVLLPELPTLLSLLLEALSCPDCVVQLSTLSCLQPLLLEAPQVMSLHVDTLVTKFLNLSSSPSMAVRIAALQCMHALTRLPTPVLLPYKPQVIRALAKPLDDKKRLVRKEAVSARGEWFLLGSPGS
UniProt Q5JXC2: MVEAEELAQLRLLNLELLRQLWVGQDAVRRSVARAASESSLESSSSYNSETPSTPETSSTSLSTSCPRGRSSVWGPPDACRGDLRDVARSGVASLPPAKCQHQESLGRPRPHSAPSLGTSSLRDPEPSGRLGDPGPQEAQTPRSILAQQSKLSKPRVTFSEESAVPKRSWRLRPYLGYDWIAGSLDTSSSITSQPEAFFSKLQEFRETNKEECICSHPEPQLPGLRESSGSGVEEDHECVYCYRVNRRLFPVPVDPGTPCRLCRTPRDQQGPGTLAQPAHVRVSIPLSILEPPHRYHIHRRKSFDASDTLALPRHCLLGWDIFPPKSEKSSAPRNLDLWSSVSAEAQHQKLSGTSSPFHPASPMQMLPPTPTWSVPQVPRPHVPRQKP
UniProt Q02078, 95-114: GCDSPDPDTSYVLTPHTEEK
UniProt Q9UNW1: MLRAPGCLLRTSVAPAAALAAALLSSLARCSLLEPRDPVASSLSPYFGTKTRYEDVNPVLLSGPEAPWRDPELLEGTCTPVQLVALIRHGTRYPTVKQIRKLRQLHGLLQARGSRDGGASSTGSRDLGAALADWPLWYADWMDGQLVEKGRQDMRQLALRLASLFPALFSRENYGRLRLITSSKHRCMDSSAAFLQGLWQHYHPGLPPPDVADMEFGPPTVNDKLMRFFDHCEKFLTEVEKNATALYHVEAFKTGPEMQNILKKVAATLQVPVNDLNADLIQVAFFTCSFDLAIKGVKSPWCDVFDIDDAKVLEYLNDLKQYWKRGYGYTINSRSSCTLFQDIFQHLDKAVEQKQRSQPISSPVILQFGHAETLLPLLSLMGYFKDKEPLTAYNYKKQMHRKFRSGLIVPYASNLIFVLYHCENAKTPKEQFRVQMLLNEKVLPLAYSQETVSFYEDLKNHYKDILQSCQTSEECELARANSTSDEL
UniProt Q7Z3U7: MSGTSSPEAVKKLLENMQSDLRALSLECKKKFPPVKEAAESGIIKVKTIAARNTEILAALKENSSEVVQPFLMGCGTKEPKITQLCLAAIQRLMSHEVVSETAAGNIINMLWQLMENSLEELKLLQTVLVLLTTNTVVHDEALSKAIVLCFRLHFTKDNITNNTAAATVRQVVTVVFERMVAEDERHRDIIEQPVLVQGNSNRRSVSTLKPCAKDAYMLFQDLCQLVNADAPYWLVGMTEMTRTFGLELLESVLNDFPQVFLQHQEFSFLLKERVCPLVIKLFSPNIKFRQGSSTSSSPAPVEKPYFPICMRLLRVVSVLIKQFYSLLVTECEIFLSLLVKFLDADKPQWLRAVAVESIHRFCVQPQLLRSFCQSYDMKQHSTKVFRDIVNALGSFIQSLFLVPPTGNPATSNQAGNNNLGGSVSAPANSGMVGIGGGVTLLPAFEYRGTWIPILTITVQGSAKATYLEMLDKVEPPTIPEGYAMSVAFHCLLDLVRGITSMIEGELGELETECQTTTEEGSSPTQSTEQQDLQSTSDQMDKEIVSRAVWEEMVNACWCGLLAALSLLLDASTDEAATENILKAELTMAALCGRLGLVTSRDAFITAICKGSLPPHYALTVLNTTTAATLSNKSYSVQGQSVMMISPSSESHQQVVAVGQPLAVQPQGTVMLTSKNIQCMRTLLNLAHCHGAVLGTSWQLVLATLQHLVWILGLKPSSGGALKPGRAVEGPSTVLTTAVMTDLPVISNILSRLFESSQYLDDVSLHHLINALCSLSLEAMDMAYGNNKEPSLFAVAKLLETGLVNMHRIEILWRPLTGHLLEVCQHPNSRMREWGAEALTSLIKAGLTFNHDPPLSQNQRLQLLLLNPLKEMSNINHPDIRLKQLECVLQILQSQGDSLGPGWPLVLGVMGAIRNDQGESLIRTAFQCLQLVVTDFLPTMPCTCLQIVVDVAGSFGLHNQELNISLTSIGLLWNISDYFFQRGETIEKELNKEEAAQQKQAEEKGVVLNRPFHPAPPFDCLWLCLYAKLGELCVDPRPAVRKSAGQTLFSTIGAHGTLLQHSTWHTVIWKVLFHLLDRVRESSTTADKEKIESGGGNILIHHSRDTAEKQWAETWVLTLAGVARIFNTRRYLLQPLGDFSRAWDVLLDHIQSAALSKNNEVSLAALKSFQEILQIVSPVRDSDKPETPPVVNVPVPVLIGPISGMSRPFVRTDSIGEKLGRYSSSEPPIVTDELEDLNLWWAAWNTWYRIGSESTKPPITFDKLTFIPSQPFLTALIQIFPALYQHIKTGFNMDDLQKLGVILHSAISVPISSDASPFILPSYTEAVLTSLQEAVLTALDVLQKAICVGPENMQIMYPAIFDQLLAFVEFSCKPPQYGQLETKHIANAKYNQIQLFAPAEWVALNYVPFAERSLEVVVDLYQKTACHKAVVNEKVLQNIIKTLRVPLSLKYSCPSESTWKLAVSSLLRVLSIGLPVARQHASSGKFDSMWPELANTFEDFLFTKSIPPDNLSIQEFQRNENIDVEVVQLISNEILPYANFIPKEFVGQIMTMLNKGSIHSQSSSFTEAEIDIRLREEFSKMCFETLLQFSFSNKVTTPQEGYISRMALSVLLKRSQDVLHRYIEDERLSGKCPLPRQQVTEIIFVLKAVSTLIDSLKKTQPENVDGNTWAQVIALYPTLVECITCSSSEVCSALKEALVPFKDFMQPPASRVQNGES
UniProt Q6N075: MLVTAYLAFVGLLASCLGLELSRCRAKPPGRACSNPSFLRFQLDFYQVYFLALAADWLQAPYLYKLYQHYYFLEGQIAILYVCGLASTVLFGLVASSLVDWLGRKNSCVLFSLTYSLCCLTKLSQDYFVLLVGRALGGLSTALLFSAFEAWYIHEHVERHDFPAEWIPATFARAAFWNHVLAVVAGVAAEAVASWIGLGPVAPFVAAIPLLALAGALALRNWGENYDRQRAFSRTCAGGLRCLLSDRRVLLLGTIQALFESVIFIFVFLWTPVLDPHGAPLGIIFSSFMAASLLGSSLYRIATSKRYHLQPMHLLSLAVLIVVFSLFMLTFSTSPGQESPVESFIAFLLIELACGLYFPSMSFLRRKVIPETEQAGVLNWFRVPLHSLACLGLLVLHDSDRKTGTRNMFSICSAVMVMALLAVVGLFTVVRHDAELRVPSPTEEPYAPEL
UniProt P21741: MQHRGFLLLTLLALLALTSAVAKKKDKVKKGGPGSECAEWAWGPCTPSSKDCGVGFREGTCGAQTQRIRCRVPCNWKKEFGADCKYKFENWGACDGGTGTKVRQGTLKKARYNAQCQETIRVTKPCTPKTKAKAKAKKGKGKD

Legend:
[1] = compound: ClCC(=O)N[C@@H]1CCCc2ccccc12; assay: log2 mean competition ratio of IA-DTB cysteine labelling (DMSO/compound) (log2 ratio); higher = stronger cysteine engagement by compound; details: treatment time: 4 h, cell line lysate: HEK293T
Method: (§1)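 IA-DTB competitive cysteine chemoproteomics in HEK293T RIPA lysate. Lysates were treated with compound 29 or 30 at 50 or 200 µM for 4 h, then IA-DTB (500 µM, 1 h), trypsin-digested, NeutrAvidin-enriched and analysed by diaPASEF. Competition ratio = intensity DMSO / intensity compound (n=4 treated, n=64 DMSO); binding: mean log2 CR ≥ 1 and p ≤ 0.05 plus QC filters. Target is the cysteine site.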

[2] = compound: ClCC(=O)N[C@H]1CCCc2ccccc12; assay: as above; details: treatment time: 4 h, cell line lysate: HEK293T
Method: as §1

| Target | log2 mean competition ratio ([1]; 50 µM) | log2 mean competition ratio ([1]; 200 µM) | log2 mean competition ratio ([2]; 50 µM) | log2 mean competition ratio ([2]; 200 µM) |
| --- | --- | --- | --- | --- |
| MPG C61 (UniProt P29372) | 0.116 | -0.0629 | 0.0462 | -0.0225 |
| MED1 C681 (UniProt Q15648) | 0.0101 | -0.0586 | 0.172 | -0.0038 |
| MMTAG2 C179 (UniProt Q9BU76) | 0.0223 | -0.101 | -0.12 | -0.102 |
| MKI67 C1981(C2464) (UniProt P46013) | -0.159 | -0.144 | -0.148 | -0.12 |
| MED9 C139 (UniProt Q9NWA0) | -0.0386 | 0.0446 | 0.463 | 0.321 |
| MEPCE C419 (UniProt Q7L2J0) | 0.397 | 0.111 | 0.505 | 0.169 |
| MPST C65 (UniProt P25325) | -0.552 | -0.984 | 0.0274 | -0.952 |
| MKI67 C2206 (UniProt P46013) | 0.309 | 0.206 | 0.515 | 0.0528 |
| MEN1 C426 (UniProt O00255) | -0.13 | 0.00292 | 0.0736 | 0.0743 |
| MORC3 C435 (UniProt Q14149) | 0.0402 | -0.186 | -0.0709 | -0.239 |
| MGA C1001 (UniProt Q8IWI9) | 0.558 | 0.296 | -0.149 | -0.0861 |
| MED29 C181 (UniProt Q9NX70) | -0.287 | 0.378 | -0.334 | 0.428 |
| MRNIP C161 (UniProt Q6NTE8) | 0.0477 | 0.0843 | 0.278 | 0.0915 |
| MRM1 C182 (UniProt Q6IN84) | -0.05 | 0.117 | -0.158 | 0.11 |
| MDN1 C271 (UniProt Q9NU22) | 0.122 | 0.252 | 0.0935 | 0.0798 |
| MMS19 C794 (UniProt Q96T76) | -0.0807 | 0.0327 | 0.115 | -0.00939 |
| MED16 C584 (UniProt Q9Y2X0) | -0.172 | -0.147 | -0.169 | -0.0785 |
| MED17 C488 (UniProt Q9NVC6) | -0.251 | 0.0977 | -0.145 | 0.0186 |
| MKLN1 C411 (UniProt Q9UL63) | 0.219 | 0.013 | -0.0609 | 0.0798 |
| MIIP C260 (UniProt Q5JXC2) | -0.245 | -0.0874 | 0.0528 | 0.0899 |
| MED1 C489 (UniProt Q15648) | -0.143 | -0.194 | -0.28 | -0.135 |
| MGA C48 (UniProt Q8IWI9) | -0.258 | 0.00404 | 0.0614 | -0.0737 |
| MPRIP C724 (UniProt Q6WCQ1) | 0.219 | -0.0147 | 0.00642 | 0.074 |
| MRNIP C300 (UniProt Q6NTE8) | -0.171 | -0.151 | -0.0733 | 0.597 |

An excerpt from further up:

| Target | log2 mean competition ratio ([1]; 50 µM) | log2 mean competition ratio ([1]; 200 µM) | log2 mean competition ratio ([2]; 50 µM) | log2 mean competition ratio ([2]; 200 µM) |
| --- | --- | --- | --- | --- |
| MRM1 C182 (UniProt Q6IN84) | -0.05 | 0.117 | -0.158 | 0.11 |
| MDN1 C271 (UniProt Q9NU22) | 0.122 | 0.252 | 0.0935 | 0.0798 |
| MMS19 C794 (UniProt Q96T76) | -0.0807 | 0.0327 | 0.115 | -0.00939 |

(listing goes on)

| Target | log2 mean competition ratio ([1]; 50 µM) | log2 mean competition ratio ([1]; 200 µM) | log2 mean competition ratio ([2]; 50 µM) | log2 mean competition ratio ([2]; 200 µM) |
| --- | --- | --- | --- | --- |
| MKLN1 C82 (UniProt Q9UL63) | 0.34 | -0.214 | 0.436 | -0.448 |
| MED23 C1069 (UniProt Q9ULK4) | 0.0438 | 0.131 | 0.588 | 0.456 |
| MGA C2382 (UniProt Q8IWI9) | -0.157 | -0.125 | -0.0669 | 0.243 |
| MED1 C501 (UniProt Q15648) | 0.107 | 0.0212 | -0.0567 | -0.146 |
| MED14 C621 (UniProt O60244) | -0.126 | -0.136 | -0.155 | -0.157 |
| MKNK2 C225 (UniProt Q9HBH9) | -0.0185 | 0.0227 | -0.752 | 0.104 |
| MKI67 C643 (UniProt P46013) | -0.0367 | 0.171 | 0.126 | 0.199 |
| MEF2A C96 (UniProt Q02078) | -0.34 | 0.372 | -0.0962 | 0.124 |
| MOB4 C51 (UniProt Q9Y3A3) | -0.675 | -0.921 | -0.484 | -0.203 |
| MGA C1146 (UniProt Q8IWI9) | -0.161 | -0.0122 | -0.157 | 0.0936 |
| MIGA1 C240 | -0.56 | 0.333 | -0.162 | 0.334 |
| MFSD6 C743 (UniProt Q6ZSS7) | -0.0114 | 0.0755 | -0.0704 | -0.0421 |
| MID1 C302 (UniProt O15344) | -0.0613 | -0.0451 | 0.294 | 0.0785 |
| MINPP1 C232 (UniProt Q9UNW1) | -0.341 | 0.234 | -0.0549 | 0.233 |
| MON2 C609 (UniProt Q7Z3U7) | -0.0505 | -0.0363 | 0.343 | 0.0904 |
| MPND C63 | 0.268 | 0.463 | -0.138 | -0.254 |
| MDN1 C979 (UniProt Q9NU22) | 0.218 | -0.00679 | 0.117 | 0.0681 |
| MDN1 C5033 (UniProt Q9NU22) | 0.0447 | -0.173 | 0.0175 | -0.123 |
| MFSD5 C33 (UniProt Q6N075) | -0.0139 | 0.232 | 0.21 | 0.237 |
| MDN1 C882 (UniProt Q9NU22) | 0.438 | 0.425 | -0.398 | 0.433 |
| MDK C52 (UniProt P21741) | 0.063 | 0.124 | -0.404 | 0.05 |
| MMS19 C599 (UniProt Q96T76) | 0.335 | 0.0574 | 0.511 | -0.261 |
| MLH1 C233 (UniProt P40692) | -0.218 | -0.0821 | -0.275 | 0.111 |
| METTL2A C126 (UniProt Q96IZ6) | -0.129 | 0.108 | 0.199 | 0.254 |
